Results are given in words; binding and its absence hold for the method and conditions named. For part of these data: In cells and extracts the contact can be indirect. Some binding calls cover weakened binding; strength is not graded here. Tags and fused reporters may be left off the sequences shown.
T1: HA-Mak16 (wild type, yeast) (yeast) (UniProt P10962)
T1 sequence: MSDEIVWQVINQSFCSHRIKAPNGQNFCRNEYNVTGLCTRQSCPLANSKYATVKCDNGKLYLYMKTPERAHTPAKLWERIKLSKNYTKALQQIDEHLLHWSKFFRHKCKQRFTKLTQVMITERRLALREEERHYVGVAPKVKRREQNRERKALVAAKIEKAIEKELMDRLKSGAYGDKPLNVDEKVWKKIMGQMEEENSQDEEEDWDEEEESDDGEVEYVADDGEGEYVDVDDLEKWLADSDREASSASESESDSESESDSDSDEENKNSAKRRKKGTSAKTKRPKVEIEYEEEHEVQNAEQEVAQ

T2: His-Mak16 (yeast, recombinant) (yeast) (UniProt P10962)
T2 sequence: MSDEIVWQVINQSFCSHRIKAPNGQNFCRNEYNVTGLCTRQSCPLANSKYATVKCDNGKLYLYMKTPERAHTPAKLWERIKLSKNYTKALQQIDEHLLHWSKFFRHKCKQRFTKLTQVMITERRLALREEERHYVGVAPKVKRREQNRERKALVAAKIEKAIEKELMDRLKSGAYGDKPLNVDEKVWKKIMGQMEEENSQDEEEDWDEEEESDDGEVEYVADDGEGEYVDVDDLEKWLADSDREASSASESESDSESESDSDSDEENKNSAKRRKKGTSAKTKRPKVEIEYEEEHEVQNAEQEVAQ

B1: Myc-Rpf1 (yeast) (protein, UniProt P38805 1-295)
chain: MALGNEINITNKLKRQEIFADIKHEKNKERHTMRRKRAKEERENPELREQRLKENVTQTIENTRVYDETINKEVEGDEDDLMRYFNSNSNEPPKIFLTTNVNAKKSAYEFANILIEILPNVTFVKRKFGYKLKEISDICIKRNFTDIVIINEDKKKVTGLTFIHLPEGPTFYFKLSSFVEVKKIVGHGRPTSHIPELILNNFQTRLGQTVGRLFQSILPQNPDIEGRQVITLHNQRDYIFFRRHRYVFKDNERVGLQELGPQFTLKLKRLQRGIKEETEWEHKPEMDKEKKKFYL
B2: Rpf1 (yeast, recombinant, coexpressed with His-Mak16) (protein, UniProt P38805 1-295)
chain: MALGNEINITNKLKRQEIFADIKHEKNKERHTMRRKRAKEERENPELREQRLKENVTQTIENTRVYDETINKEVEGDEDDLMRYFNSNSNEPPKIFLTTNVNAKKSAYEFANILIEILPNVTFVKRKFGYKLKEISDICIKRNFTDIVIINEDKKKVTGLTFIHLPEGPTFYFKLSSFVEVKKIVGHGRPTSHIPELILNNFQTRLGQTVGRLFQSILPQNPDIEGRQVITLHNQRDYIFFRRHRYVFKDNERVGLQELGPQFTLKLKRLQRGIKEETEWEHKPEMDKEKKKFYL
B3: Rpf1-Δ58 (yeast, recombinant, coexpressed with His-Mak16) (domain or fragment, UniProt P38805 59-295)
chain: TIENTRVYDETINKEVEGDEDDLMRYFNSNSNEPPKIFLTTNVNAKKSAYEFANILIEILPNVTFVKRKFGYKLKEISDICIKRNFTDIVIINEDKKKVTGLTFIHLPEGPTFYFKLSSFVEVKKIVGHGRPTSHIPELILNNFQTRLGQTVGRLFQSILPQNPDIEGRQVITLHNQRDYIFFRRHRYVFKDNERVGLQELGPQFTLKLKRLQRGIKEETEWEHKPEMDKEKKKFYL

Key:
[1] = target: T1, HA-Mak16 (wild type, yeast) (yeast); experiment: co-IP; reciprocal immunoprecipitation with HA or Myc beads from extracts of Gal-MAK16/Gal-RPF1 yeast grown 40 h on glucose (chromosomal Mak16 and Rpf1 depleted), western blot; also after treatment of the cells with DTT, paraquat, H2O2 or menadione
[2] = target: T2, His-Mak16 (yeast, recombinant) (yeast); experiment: co-purification after co-expression; N-terminally His6-tagged yeast Mak16 coexpressed with Rpf1 or Rpf1-Δ58 in E. coli, affinity purified; SDS-PAGE (Coomassie) and western blot

Row | Binder | binding [1] | binding [2]
1 | B1 | binds | 
2 | B2 |  | binds
3 | B3 |  | binds

— publication PMC12646323
